Test results from US12103939B2, “Solid pharmaceutical gold-based composition” (KING FAHD UNIVERSITY OF PETROLEUM AND MINERALS, priority 2019, dated 2024).

Experiments:
guanine = experiment: Voltammetry, interaction with guanine; conditions: 0.5 mM guanine, pH 6.8
[1] = Voltammetry, interaction with tryptophan; conditions: 0.5 mM tryptophan, pH 6.8

Oc1ccc[n+]2c1-c1c(O)ccc[n+]1[Au-]2([Cl])[Cl].[Cl-] [C1, [Au(BPYH)(Cl)2]Cl]
Voltammetry peak potential (guanine; CV, 10 μM complex): 0.9602 mV
Voltammetry peak potential (guanine; CV, 40 μM complex): 0.9824 mV
Voltammetry peak potential (guanine; CV, 100 μM complex): 1.0222 mV
Voltammetry peak potential (guanine; SWV, 10 μM complex): 0.9444 mV
Voltammetry peak potential (guanine; SWV, 40 μM complex): 0.9596 mV
Voltammetry peak potential (guanine; SWV, 100 μM complex): 0.9948 mV

[Cl-].[Cl-].[Cl][Au-]1([Cl])[n+]2ccc[n+]3c2-c2[n+]1ccc[n+]2[Au-]3([Cl])[Cl] [C5, [Au2(BPM)(Cl)4]Cl2]
Voltammetry peak potential (guanine; CV, 10 μM complex): 0.9956 mV
Voltammetry peak potential (guanine; CV, 40 μM complex): 1.0133 mV
Voltammetry peak potential (guanine; CV, 100 μM complex): 1.0753 mV
Voltammetry peak potential (guanine; SWV, 10 μM complex): 0.9948 mV
Voltammetry peak potential (guanine; SWV, 40 μM complex): 1.025 mV
Voltammetry peak potential (guanine; SWV, 100 μM complex): 1.0502 mV
Voltammetry peak potential ([1]; CV, 10 μM complex): 0.7257 mV
Voltammetry peak potential ([1]; CV, 40 μM complex): 0.7434 mV
Voltammetry peak potential ([1]; CV, 100 μM complex): 0.7478 mV
Voltammetry peak potential ([1]; SWV, 10 μM complex): 0.7137 mV
Voltammetry peak potential ([1]; SWV, 40 μM complex): 0.7388 mV
Voltammetry peak potential ([1]; SWV, 100 μM complex): 0.7489 mV

C[N+](C)=C1[S][Au-]2([S]1)[n+]1ccc[n+]3c1-c1[n+]2ccc[n+]1[Au-]31[S]C(=[N+](C)C)[S]1.[Cl-].[Cl-].[Cl-].[Cl-] [C6, [Au2(BPM)(DMDTC)2]Cl4]
Voltammetry peak potential ([1]; CV, 10 μM complex): 0.7301 mV
Voltammetry peak potential ([1]; CV, 40 μM complex): 0.739 mV
Voltammetry peak potential ([1]; CV, 100 μM complex): 0.7434 mV
Voltammetry peak potential ([1]; SWV, 10 μM complex): 0.7187 mV
Voltammetry peak potential ([1]; SWV, 40 μM complex): 0.7237 mV
Voltammetry peak potential ([1]; SWV, 100 μM complex): 0.7288 mV

CC[N+](CC)=C1[S][Au-]2([S]1)[n+]1ccc[n+]3c1-c1[n+]2ccc[n+]1[Au-]31[S]C(=[N+](CC)CC)[S]1.[Cl-].[Cl-].[Cl-].[Cl-] [C7, [Au2(BPM)(DEDTC)2]Cl4]
Voltammetry peak potential ([1]; CV, 10 μM complex): 0.7257 mV
Voltammetry peak potential ([1]; CV, 40 μM complex): 0.7567 mV
Voltammetry peak potential ([1]; CV, 100 μM complex): 0.7832 mV
Voltammetry peak potential ([1]; SWV, 10 μM complex): 0.7137 mV
Voltammetry peak potential ([1]; SWV, 40 μM complex): 0.7288 mV
Voltammetry peak potential ([1]; SWV, 100 μM complex): 0.7338 mV

[Cl-].[Cl-].[Cl-].[Cl-].c1ccc(C[N+](Cc2ccccc2)=C2[S][Au-]3([S]2)[n+]2ccc[n+]4c2-c2[n+]3ccc[n+]2[Au-]42[S]C(=[N+](Cc3ccccc3)Cc3ccccc3)[S]2)cc1 [C8, [Au2(BPM)(DBDTC)2]Cl4]
Voltammetry peak potential ([1]; CV, 10 μM complex): 0.7169 mV
Voltammetry peak potential ([1]; CV, 40 μM complex): 0.7213 mV
Voltammetry peak potential ([1]; CV, 100 μM complex): 0.7832 mV
Voltammetry peak potential ([1]; SWV, 10 μM complex): 0.7086 mV
Voltammetry peak potential ([1]; SWV, 40 μM complex): 0.7137 mV
Voltammetry peak potential ([1]; SWV, 100 μM complex): 0.7187 mV
